Assay results: article PMC11445549
These are yes or no findings as the source states them, for the method shown. For part of these data: Binding seen in cells or lysates may run through a third protein. Some entries that bind do so weakly or less than the wild type. Tags and fused reporters may be left off the sequences shown.

The chains behind the UniProt entries cited, without tags or fusion partners.
UniProt P19474: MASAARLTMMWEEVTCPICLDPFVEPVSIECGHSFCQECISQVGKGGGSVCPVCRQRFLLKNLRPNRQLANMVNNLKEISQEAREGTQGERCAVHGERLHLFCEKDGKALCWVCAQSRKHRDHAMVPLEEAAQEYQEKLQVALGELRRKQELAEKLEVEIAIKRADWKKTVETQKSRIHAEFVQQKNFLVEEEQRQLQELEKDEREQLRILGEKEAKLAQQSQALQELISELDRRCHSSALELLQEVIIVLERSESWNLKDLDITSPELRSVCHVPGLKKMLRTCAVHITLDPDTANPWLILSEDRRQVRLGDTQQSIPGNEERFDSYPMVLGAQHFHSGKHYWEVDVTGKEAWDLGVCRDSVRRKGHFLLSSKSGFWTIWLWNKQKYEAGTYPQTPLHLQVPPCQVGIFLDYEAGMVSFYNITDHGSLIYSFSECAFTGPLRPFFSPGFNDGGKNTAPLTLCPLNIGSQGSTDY

B1: His-IKBKB (protein, UniProt O14920 1-756)
chain: MSWSPSLTTQTCGAWEMKERLGTGGFGNVIRWHNQETGEQIAIKQCRQELSPRNRERWCLEIQIMRRLTHPNVVAARDVPEGMQNLAPNDLPLLAMEYCQGGDLRKYLNQFENCCGLREGAILTLLSDIASALRYLHENRIIHRDLKPENIVLQQGEQRLIHKIIDLGYAKELDQGSLCTSFVGTLQYLAPELLEQQKYTVTVDYWSFGTLAFECITGFRPFLPNWQPVQWHSKVRQKSEVDIVVSEDLNGTVKFSSSLPYPNNLNSVLAERLEKWLQLMLMWHPRQRGTDPTYGPNGCFKALDDILNLKLVHILNMVTGTIHTYPVTEDESLQSLKARIQQDTGIPEEDQELLQEAGLALIPDKPATQCISDGKLNEGHTLDMDLVFLFDNSKITYETQISPRPQPESVSCILQEPKRNLAFFQLRKVWGQVWHSIQTLKEDCNRLQQGQRAAMMNLLRNNSCLSKMKNSMASMSQQLKAKLDFFKTSIQIDLEKYSEQTEFGITSDKLLLAWREMEQAVELCGRENEVKLLVERMMALQTDIVDLQRSPMGRKQGGTLDDLEEQARELYRRLREKPRDQRTEGDSQEMVRLLLQAIQSFEKKVRVIYTQLSKTVVCKQKALELLPKVEEVVSLMNEDEKTVVRLQEKRQKELWNLLKIACSKVRGPVSGSPDSMNASRLSQPGQLMSQPSTASNSLPEPAKKSEELVAEAHNLCTLLENAIQDTVREQDQSFTALDWSWLQTEEEEHSCLEQAS
B2: His-EPDR1 (protein, UniProt Q9UM22 38-224)
chain: APRPCQAPQQWEGRQVMYQQSSGRNSRALLSYDGLNQRVRVLDERKALIPCKRLFEYILLYKDGVMFQIDQATKQCSKMTLTQPWDPLDIPQNSTFEDQYSIGGPQEQITVQEWSDRKSARSYETWIGIYTVKDCYPVQETFTINYSVILSTRFFDIQLGIKDPSVFTPPSTCQMAQLEKMSEDCSW
B3: HA-IKBKB (protein, UniProt O14920 1-756)
chain: MSWSPSLTTQTCGAWEMKERLGTGGFGNVIRWHNQETGEQIAIKQCRQELSPRNRERWCLEIQIMRRLTHPNVVAARDVPEGMQNLAPNDLPLLAMEYCQGGDLRKYLNQFENCCGLREGAILTLLSDIASALRYLHENRIIHRDLKPENIVLQQGEQRLIHKIIDLGYAKELDQGSLCTSFVGTLQYLAPELLEQQKYTVTVDYWSFGTLAFECITGFRPFLPNWQPVQWHSKVRQKSEVDIVVSEDLNGTVKFSSSLPYPNNLNSVLAERLEKWLQLMLMWHPRQRGTDPTYGPNGCFKALDDILNLKLVHILNMVTGTIHTYPVTEDESLQSLKARIQQDTGIPEEDQELLQEAGLALIPDKPATQCISDGKLNEGHTLDMDLVFLFDNSKITYETQISPRPQPESVSCILQEPKRNLAFFQLRKVWGQVWHSIQTLKEDCNRLQQGQRAAMMNLLRNNSCLSKMKNSMASMSQQLKAKLDFFKTSIQIDLEKYSEQTEFGITSDKLLLAWREMEQAVELCGRENEVKLLVERMMALQTDIVDLQRSPMGRKQGGTLDDLEEQARELYRRLREKPRDQRTEGDSQEMVRLLLQAIQSFEKKVRVIYTQLSKTVVCKQKALELLPKVEEVVSLMNEDEKTVVRLQEKRQKELWNLLKIACSKVRGPVSGSPDSMNASRLSQPGQLMSQPSTASNSLPEPAKKSEELVAEAHNLCTLLENAIQDTVREQDQSFTALDWSWLQTEEEEHSCLEQAS
B4: Flag-IKBKB (protein, UniProt O14920 1-756)
chain: MSWSPSLTTQTCGAWEMKERLGTGGFGNVIRWHNQETGEQIAIKQCRQELSPRNRERWCLEIQIMRRLTHPNVVAARDVPEGMQNLAPNDLPLLAMEYCQGGDLRKYLNQFENCCGLREGAILTLLSDIASALRYLHENRIIHRDLKPENIVLQQGEQRLIHKIIDLGYAKELDQGSLCTSFVGTLQYLAPELLEQQKYTVTVDYWSFGTLAFECITGFRPFLPNWQPVQWHSKVRQKSEVDIVVSEDLNGTVKFSSSLPYPNNLNSVLAERLEKWLQLMLMWHPRQRGTDPTYGPNGCFKALDDILNLKLVHILNMVTGTIHTYPVTEDESLQSLKARIQQDTGIPEEDQELLQEAGLALIPDKPATQCISDGKLNEGHTLDMDLVFLFDNSKITYETQISPRPQPESVSCILQEPKRNLAFFQLRKVWGQVWHSIQTLKEDCNRLQQGQRAAMMNLLRNNSCLSKMKNSMASMSQQLKAKLDFFKTSIQIDLEKYSEQTEFGITSDKLLLAWREMEQAVELCGRENEVKLLVERMMALQTDIVDLQRSPMGRKQGGTLDDLEEQARELYRRLREKPRDQRTEGDSQEMVRLLLQAIQSFEKKVRVIYTQLSKTVVCKQKALELLPKVEEVVSLMNEDEKTVVRLQEKRQKELWNLLKIACSKVRGPVSGSPDSMNASRLSQPGQLMSQPSTASNSLPEPAKKSEELVAEAHNLCTLLENAIQDTVREQDQSFTALDWSWLQTEEEEHSCLEQAS
B5: EPDR1 overexpressed in HepG2 cells (competitive co-IP, Fig. 3L) (protein, UniProt Q9UM22 38-224)
chain: APRPCQAPQQWEGRQVMYQQSSGRNSRALLSYDGLNQRVRVLDERKALIPCKRLFEYILLYKDGVMFQIDQATKQCSKMTLTQPWDPLDIPQNSTFEDQYSIGGPQEQITVQEWSDRKSARSYETWIGIYTVKDCYPVQETFTINYSVILSTRFFDIQLGIKDPSVFTPPSTCQMAQLEKMSEDCSW

What was measured:
GST-TRIM21 [1] = target: GST-TRIM21 (UniProt P19474); experiment: pull-down; competitive: purified His-EPDR1 and His-IKBKB incubated with purified GST-TRIM21 alone or together in vitro; Western blotting; both purified
GST-TRIM21 [2] = target: GST-TRIM21 (UniProt P19474); experiment: pull-down; GST-tagged TRIM21 and a 6xHis-tagged protein purified from E. coli, incubated in vitro in pull-down buffer (137 mM NaCl, 0.1% Triton X-100); Western blotting; both purified
Flag-TRIM21 = Flag-TRIM21 (UniProt P19474); experiment: co-IP; HEK293T cells transfected with a Flag-tagged and an HA-tagged protein; lysates (1% NP-40 IP buffer) immunoprecipitated with anti-Flag, blotted for HA
HA-TRIM21 = HA-TRIM21 (UniProt P19474); experiment: co-IP; competitive binding: HepG2 cells expressing empty vector or EPDR1, infected with Flag-IKBKB and HA-EV or HA-TRIM21; immunoprecipitated with anti-HA, blotted for IKBKB, EPDR1 and HA

binding (GST-TRIM21 [2]) | binding (HA-TRIM21) | also measured | Binder
binds |  | binding (GST-TRIM21 [1]): binds | B1
binds |  |  | B2
 |  | binding (Flag-TRIM21): binds | B3
 | binds |  | B4
 | binds |  | B5
